The values below come from paper PMC4392246, “Structure of a BAG6 (Bcl-2-associated Athanogene 6)-Ubl4a (Ubiquitin-like Protein 4a) Complex Reveals a Novel Binding Interface That Functions in Tail-anchored Protein Biogenesis*” (The Journal of Biological Chemistry, 2015).

These are yes or no findings as the source states them, for the method shown. Where a sequence is shown, tags or fusion partners need not be part of it.

The target of the assay is GST-tagged BAG domain of BAG5 (Homo sapiens). The assay is described as follows: pull-down; GST-tagged BAG or BAGS domains on glutathione-Sepharose beads, washed with buffer B, mixed with purified Ubl4a proteins in vitro; immunoblot; both purified.

B1: recombinant FLAG-tagged Ubl4a (full-length) (protein, UniProt P11441 1-157)
chain: MQLTVKALQGRECSLQVPEDELVSTLKQLVSEKLNVPVRQQRLLFKGKALADGKRLSDYSIGPNSKLNLVVKPLEKVLLEEGEAQRLADSPPPQVWQLISKVLARHFSAADASRVLEQLQRDYERSLSRLTLDDIERLASRFLHPEVTETMEKGFSK
For the molecule B1, the binding entry is reported as “no binding”.
